# PubChem BioAssay AID1224830 | NIAID | 2016
# Assay: 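Host factors that control LPS-induced TNF expression in human macrophages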 (primary screen)
# Cell system: human THP-1 monocytic leukaemia cells, TNF dual-luciferase reporter clone, PMA-differentiated to macrophage-like cells
# Knock-down reagent: siRNA pool against human genes, 50 nM
# Timing: LPS for 4 h, given about 3 days after siRNA transfection
# Challenge: bacterial LPS (TLR4 ligand), 10 ng/ml
# Measurement: 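Ratio of firefly to renilla light, scaled to the plate median and expressed as a robust z-score per replicate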
# Reading the numbers: TNF reporter robust z-score: higher = stronger TNF reporter response to LPS
# Active means: 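a well is active when its z-score exceeds 2.8 or falls below -1.5; control wells carry no call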
# In all, the deposit lists about 18,000 reagents; below is a part drawn at random. Over the whole deposit, about 2,900 (16%) were called active. 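Calls are made per well; low scores hint the gene aids the LPS response, high scores that it dampens it.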 A number with no mark means an inactive call. Repeated entries: four replicate wells of each siRNA pool.
Target gene,TNF reporter robust z-score
CLCA4 (chloride channel accessory 4),-0.79
CLCA4 (chloride channel accessory 4),0.95
CLCA4 (chloride channel accessory 4),-0.88
CLCA4 (chloride channel accessory 4),0.66
USP42 (ubiquitin specific peptidase 42),0.04
USP42 (ubiquitin specific peptidase 42),1.07
USP42 (ubiquitin specific peptidase 42),0.15
USP42 (ubiquitin specific peptidase 42),1.5
HCAR3 (hydroxycarboxylic acid receptor 3),1.3
HCAR3 (hydroxycarboxylic acid receptor 3),0.22
HCAR3 (hydroxycarboxylic acid receptor 3),2.54
HCAR3 (hydroxycarboxylic acid receptor 3),2.58
TNFRSF25 (TNF receptor superfamily member 25),0.68
TNFRSF25 (TNF receptor superfamily member 25),-0.34
TNFRSF25 (TNF receptor superfamily member 25),3.16 (active)
TNFRSF25 (TNF receptor superfamily member 25),1.9
LINC00477 (long independently transcribed non-coding RNA 477),4.74 (active)
LINC00477 (long independently transcribed non-coding RNA 477),4.08 (active)
LINC00477 (long independently transcribed non-coding RNA 477),0.77
LINC00477 (long independently transcribed non-coding RNA 477),0.83
SFTA2 (surfactant associated 2),-0.85
SFTA2 (surfactant associated 2),-0.54
SFTA2 (surfactant associated 2),-0.45
SFTA2 (surfactant associated 2),-0.61
RUNDC3B (RUN domain containing 3B),2.38
RUNDC3B (RUN domain containing 3B),0.92
RUNDC3B (RUN domain containing 3B),1.68
RUNDC3B (RUN domain containing 3B),2.4

Active calls, of those listed so far:
Target gene,TNF reporter robust z-score
TNFRSF25 (TNF receptor superfamily member 25),3.16 (active)
LINC00477 (long independently transcribed non-coding RNA 477),4.74 (active)
LINC00477 (long independently transcribed non-coding RNA 477),4.08 (active)

The listing continues.
Target gene,TNF reporter robust z-score
GPC6 (glypican 6),-0.09
GPC6 (glypican 6),-0.86
GPC6 (glypican 6),-0.51
GPC6 (glypican 6),-0.49
STAMBPL1 (STAM binding protein like 1),-0.12
STAMBPL1 (STAM binding protein like 1),0.05
STAMBPL1 (STAM binding protein like 1),0.34
STAMBPL1 (STAM binding protein like 1),1.09
SLC25A23,0.59
SLC25A23,-0.17
SLC25A23,1.14
SLC25A23,1.38
PMM2 (phosphomannomutase 2),-0.49
PMM2 (phosphomannomutase 2),-0.36
PMM2 (phosphomannomutase 2),-0.08
PMM2 (phosphomannomutase 2),-0.09
RAD1 (RAD1 checkpoint DNA exonuclease),0.09
RAD1 (RAD1 checkpoint DNA exonuclease),0.18
RAD1 (RAD1 checkpoint DNA exonuclease),0.08
RAD1 (RAD1 checkpoint DNA exonuclease),2.56
OOSP2 (oocyte secreted protein 2),-0.26
OOSP2 (oocyte secreted protein 2),0.37
OOSP2 (oocyte secreted protein 2),0.72
OOSP2 (oocyte secreted protein 2),-0.66
OAT (ornithine aminotransferase),-1.2
OAT (ornithine aminotransferase),-0.11
OAT (ornithine aminotransferase),-0.49
OAT (ornithine aminotransferase),-0.63
NCAPD2 (non-SMC condensin I complex subunit D2),-1.22
NCAPD2 (non-SMC condensin I complex subunit D2),-0.78
NCAPD2 (non-SMC condensin I complex subunit D2),-0.86
NCAPD2 (non-SMC condensin I complex subunit D2),-1.02
SERPINB8 (serpin family B member 8),-0.3
SERPINB8 (serpin family B member 8),0.12
SERPINB8 (serpin family B member 8),0.57
SERPINB8 (serpin family B member 8),0
GGCX (gamma-glutamyl carboxylase),2.03
GGCX (gamma-glutamyl carboxylase),2.93 (active)
GGCX (gamma-glutamyl carboxylase),0.29
GGCX (gamma-glutamyl carboxylase),2.13
"SPINT4 (serine peptidase inhibitor, Kunitz type 4)",0.53
"SPINT4 (serine peptidase inhibitor, Kunitz type 4)",0.5
"SPINT4 (serine peptidase inhibitor, Kunitz type 4)",0.02
"SPINT4 (serine peptidase inhibitor, Kunitz type 4)",0.72
PCSK4 (proprotein convertase subtilisin/kexin type 4),0.59
PCSK4 (proprotein convertase subtilisin/kexin type 4),0.01
PCSK4 (proprotein convertase subtilisin/kexin type 4),1.5
PCSK4 (proprotein convertase subtilisin/kexin type 4),0.53
